According to US9994813, “Role for the perlman syndrome exonuclease Dis3l2 in the Lin28-let-7 pathway” (Children's Medical Center Corporation):
Numbering of substitutions follows the chain as printed. For part of these data: A weaker result is weaker than the reference pair of the same experiment. For part of these data: Protein sequences can lack the tags named with them. The exact form of at least one protein or probe is not confirmed. For part of these data: No signal at the amounts used counts as a negative. For part of these data: Where cells or extracts were used, other partners may take part.

By UniProt entry, the sequences of proteins in these tests, tags left out. Where a name states a change or a piece, a line headed by the entry shows the natural chain unless it says otherwise.
UniProt B2RX14: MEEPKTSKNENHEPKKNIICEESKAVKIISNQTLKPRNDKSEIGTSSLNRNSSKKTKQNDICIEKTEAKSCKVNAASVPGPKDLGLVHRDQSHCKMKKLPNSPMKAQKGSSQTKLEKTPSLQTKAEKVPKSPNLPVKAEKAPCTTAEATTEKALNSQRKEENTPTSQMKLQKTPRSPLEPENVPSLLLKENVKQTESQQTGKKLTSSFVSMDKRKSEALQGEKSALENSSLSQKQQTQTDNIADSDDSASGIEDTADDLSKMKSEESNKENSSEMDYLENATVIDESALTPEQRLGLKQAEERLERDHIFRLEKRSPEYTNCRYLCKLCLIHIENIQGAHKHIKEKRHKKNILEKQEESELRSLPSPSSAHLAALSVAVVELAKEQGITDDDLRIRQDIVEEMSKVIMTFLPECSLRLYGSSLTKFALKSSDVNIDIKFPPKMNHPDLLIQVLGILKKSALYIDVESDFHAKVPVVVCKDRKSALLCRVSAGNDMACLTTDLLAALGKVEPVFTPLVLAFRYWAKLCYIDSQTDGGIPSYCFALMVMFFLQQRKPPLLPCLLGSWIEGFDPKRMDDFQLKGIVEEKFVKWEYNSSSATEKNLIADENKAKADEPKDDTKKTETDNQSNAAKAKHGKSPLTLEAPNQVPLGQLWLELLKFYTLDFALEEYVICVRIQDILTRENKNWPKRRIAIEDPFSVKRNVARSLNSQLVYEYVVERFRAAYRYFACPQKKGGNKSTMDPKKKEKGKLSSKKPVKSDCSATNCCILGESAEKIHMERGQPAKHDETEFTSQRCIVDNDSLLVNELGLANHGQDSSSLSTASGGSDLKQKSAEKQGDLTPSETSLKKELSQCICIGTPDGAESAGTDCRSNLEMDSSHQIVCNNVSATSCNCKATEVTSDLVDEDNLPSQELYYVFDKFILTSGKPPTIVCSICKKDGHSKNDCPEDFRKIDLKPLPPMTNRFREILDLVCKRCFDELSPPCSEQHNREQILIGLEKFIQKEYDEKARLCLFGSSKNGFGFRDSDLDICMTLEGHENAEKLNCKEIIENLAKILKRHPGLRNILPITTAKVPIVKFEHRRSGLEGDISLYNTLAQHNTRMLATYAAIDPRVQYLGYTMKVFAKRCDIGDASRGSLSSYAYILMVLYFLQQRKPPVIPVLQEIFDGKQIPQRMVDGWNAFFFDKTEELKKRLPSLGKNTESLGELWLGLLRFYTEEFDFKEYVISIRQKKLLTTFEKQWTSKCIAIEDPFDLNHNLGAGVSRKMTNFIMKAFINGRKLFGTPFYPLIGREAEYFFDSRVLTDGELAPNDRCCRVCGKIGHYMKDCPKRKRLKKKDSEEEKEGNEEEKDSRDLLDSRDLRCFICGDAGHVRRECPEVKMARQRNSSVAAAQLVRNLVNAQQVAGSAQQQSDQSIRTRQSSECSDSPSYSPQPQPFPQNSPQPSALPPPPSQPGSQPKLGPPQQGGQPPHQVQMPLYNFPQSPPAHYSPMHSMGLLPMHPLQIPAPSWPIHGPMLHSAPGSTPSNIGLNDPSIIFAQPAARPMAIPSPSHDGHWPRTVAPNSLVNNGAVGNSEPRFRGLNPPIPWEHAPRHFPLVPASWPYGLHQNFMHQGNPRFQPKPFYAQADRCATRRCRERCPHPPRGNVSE
UniProt Q9UPY3: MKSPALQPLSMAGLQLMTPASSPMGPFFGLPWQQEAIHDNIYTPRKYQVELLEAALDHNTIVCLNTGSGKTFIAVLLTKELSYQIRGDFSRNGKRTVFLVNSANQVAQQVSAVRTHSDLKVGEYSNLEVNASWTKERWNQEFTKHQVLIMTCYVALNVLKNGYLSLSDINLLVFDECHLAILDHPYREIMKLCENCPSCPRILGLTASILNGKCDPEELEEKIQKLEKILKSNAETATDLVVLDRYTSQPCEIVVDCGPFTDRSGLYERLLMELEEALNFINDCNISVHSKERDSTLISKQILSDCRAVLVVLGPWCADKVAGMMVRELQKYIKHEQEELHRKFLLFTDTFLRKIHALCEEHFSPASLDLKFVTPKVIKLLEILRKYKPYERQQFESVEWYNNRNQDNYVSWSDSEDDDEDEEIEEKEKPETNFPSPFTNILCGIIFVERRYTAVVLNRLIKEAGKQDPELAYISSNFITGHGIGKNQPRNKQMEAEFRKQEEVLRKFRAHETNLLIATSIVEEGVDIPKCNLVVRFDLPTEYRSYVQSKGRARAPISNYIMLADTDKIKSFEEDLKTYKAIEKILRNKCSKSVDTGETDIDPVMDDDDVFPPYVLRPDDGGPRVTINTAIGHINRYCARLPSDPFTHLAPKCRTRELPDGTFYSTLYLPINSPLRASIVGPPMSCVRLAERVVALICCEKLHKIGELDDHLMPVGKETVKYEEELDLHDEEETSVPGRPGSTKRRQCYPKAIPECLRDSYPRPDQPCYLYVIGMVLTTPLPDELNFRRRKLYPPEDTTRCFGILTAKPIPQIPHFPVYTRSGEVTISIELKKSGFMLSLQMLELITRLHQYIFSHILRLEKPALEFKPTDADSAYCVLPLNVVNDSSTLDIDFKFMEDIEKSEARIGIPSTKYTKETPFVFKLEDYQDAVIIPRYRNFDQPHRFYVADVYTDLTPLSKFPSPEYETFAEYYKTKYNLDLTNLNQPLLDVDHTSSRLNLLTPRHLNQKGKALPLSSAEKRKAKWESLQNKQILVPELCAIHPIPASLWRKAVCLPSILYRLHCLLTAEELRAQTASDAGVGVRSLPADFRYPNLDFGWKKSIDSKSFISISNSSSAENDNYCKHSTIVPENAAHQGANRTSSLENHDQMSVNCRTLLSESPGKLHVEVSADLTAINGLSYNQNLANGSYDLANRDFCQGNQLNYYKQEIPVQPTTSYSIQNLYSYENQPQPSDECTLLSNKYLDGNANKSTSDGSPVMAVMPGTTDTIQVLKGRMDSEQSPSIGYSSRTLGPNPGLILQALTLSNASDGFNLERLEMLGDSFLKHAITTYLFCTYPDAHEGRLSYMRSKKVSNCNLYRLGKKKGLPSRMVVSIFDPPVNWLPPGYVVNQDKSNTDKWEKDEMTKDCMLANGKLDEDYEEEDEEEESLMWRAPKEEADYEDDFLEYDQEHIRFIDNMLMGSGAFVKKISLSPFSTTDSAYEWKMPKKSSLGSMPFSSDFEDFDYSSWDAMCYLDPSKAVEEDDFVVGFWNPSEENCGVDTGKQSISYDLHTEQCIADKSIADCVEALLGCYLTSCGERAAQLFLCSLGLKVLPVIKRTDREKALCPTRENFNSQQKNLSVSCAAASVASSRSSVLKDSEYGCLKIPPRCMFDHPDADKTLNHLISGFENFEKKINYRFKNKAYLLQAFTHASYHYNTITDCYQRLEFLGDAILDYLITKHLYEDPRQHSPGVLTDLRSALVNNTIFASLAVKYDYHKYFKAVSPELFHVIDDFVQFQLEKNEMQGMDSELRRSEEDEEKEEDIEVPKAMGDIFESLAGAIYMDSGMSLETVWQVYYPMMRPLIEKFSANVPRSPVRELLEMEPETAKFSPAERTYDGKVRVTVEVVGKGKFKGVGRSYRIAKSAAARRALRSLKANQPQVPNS

Experiments:
[1] = target: T1, Dis3l2 (Flag) (Mus musculus) (UniProt Q8CI75); assay: enzyme reaction in vitro; conditions: 0.05 mM MgCl2, 37 C, purified recombinant protein, protein details: Flag, immunopurified from V6.5 ESC or 293T, label: 5'-32P
T1 sequence (looked up, limits assumed): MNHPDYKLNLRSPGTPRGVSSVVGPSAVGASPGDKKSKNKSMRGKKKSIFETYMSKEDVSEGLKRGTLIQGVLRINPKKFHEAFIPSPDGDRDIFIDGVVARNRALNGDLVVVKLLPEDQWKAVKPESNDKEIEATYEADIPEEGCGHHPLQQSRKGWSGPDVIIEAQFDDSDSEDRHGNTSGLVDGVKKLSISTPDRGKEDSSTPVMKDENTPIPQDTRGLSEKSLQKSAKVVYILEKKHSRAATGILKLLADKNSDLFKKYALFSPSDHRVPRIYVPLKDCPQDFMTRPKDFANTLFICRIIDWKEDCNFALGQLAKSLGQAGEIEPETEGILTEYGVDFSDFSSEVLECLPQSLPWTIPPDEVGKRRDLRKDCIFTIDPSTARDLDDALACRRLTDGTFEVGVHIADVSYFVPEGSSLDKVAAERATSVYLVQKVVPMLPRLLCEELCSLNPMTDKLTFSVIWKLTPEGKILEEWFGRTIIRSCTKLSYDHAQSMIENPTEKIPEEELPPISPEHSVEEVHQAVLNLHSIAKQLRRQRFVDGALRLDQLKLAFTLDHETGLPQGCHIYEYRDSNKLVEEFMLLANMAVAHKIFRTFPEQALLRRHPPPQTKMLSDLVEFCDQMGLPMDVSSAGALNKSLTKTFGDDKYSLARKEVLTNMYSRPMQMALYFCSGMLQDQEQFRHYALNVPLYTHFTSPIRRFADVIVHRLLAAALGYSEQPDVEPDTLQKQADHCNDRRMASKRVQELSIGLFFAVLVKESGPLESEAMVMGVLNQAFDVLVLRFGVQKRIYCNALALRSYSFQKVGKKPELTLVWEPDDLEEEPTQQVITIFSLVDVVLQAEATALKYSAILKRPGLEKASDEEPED

[2] = target: T2, Dis3l2 D389N (Mus musculus) (UniProt Q8CI75); assay: EMSA; conditions: selective for uridylated RNA; 1 nM RNA, 50 mM Tris pH 7.6, 100 mM NaCl; purified recombinant protein; protein details: 6xHis, E. coli; label: 5'-32P
T2 sequence (looked up, limits assumed): T1 sequence (looked up, limits assumed) with D389N

[3] = target: T3, Lin28A (UniProt Q8K3Y3); assay: EMSA; conditions: positive control, binds the loop; purified recombinant protein; protein details: 6xHis, E. coli; label: 5'-32P
T3 sequence (looked up, limits assumed): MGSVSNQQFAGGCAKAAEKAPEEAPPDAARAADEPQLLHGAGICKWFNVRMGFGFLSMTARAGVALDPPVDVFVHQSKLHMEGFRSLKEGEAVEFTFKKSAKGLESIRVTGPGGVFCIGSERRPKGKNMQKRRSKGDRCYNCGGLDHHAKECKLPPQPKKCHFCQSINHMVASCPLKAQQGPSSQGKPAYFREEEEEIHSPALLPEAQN

[4] = target: T4, Dis3l2 (recombinant 6xHis) (Mus musculus) (UniProt Q8CI75); assay: EMSA; conditions: legend says recombinant Dis3l2; methods state catalytically inert 6xHis Dis3l2 used; purified recombinant protein; protein details: 6xHis, pETDuet-1, E. coli; label: 5'-32P
T4 sequence (looked up, limits assumed): T1 sequence (looked up, limits assumed)

[5] = target: Zcchc11 (endogenous) (Mus musculus) (UniProt B2RX14); assay: pull-down; conditions: RNA-agarose extract, may be indirect via Lin28A, protein in an extract, protein details: P19 whole-cell extract, label: 5'-32P
[6] = target: T5, Dis3l2 (endogenous) (Mus musculus) (UniProt Q8CI75); assay: pull-down; conditions: RNA-agarose, mass spec and Western, protein in an extract, protein details: P19 whole-cell extract, label: 5'-32P
T5 sequence (looked up, limits assumed): T1 sequence (looked up, limits assumed)

[7] = target: T6, Lin28A (endogenous) (Mus musculus) (UniProt Q8K3Y3); assay: pull-down; conditions: RNA-agarose, protein in an extract, protein details: P19 whole-cell extract, label: 5'-32P
T6 sequence (looked up, limits assumed): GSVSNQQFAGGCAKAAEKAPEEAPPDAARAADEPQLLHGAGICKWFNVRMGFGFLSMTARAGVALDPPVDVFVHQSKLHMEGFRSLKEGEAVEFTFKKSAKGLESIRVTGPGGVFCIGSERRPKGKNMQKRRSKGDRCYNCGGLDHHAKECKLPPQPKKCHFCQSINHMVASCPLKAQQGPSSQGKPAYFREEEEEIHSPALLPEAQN

[8] = target: Dicer (UniProt Q9UPY3); assay: enzyme reaction in vitro; conditions: 3.2 mM MgCl2, 37 C, purified recombinant protein, protein details: Flag, insect cells, label: 5'-32P
[9] = target: T4, Dis3l2 (recombinant 6xHis) (Mus musculus); assay: enzyme reaction in vitro; conditions: >10-fold more stable than +14U RNA; purified recombinant protein; protein details: 6xHis, pETDuet-1, E. coli; label: 5'-32P

Row | Sequence | activity on this sequence [1] | binding result [2] | binding result [3] | binding result [4] | binding result [5] | binding result [6] | binding result [7] | activity on this sequence ([8]; processed to ~22 nt duplexes) | activity on this sequence [9] | binding result ([5]; variant of mmu-pre-let-7a-1) | binding result ([6]; variant of mmu-pre-let-7a-1) | binding result ([7]; variant of mmu-pre-let-7a-1) | activity on this sequence ([1]; preferentially degraded, variant of mmu-pre-let-7a-1) | activity on this sequence ([8]; poor substrate, variant of mmu-pre-let-7a-1)
1 | UAGCUUAUCAGACUGAUGUUGACUGUUGAAUCUCAUGGCAACAGCAGUCGAUGGGCUGUC [mmu-pre-miR-21] | less active | – | – | – | – | – | – | – | – | – | – | – | – | –
2 | UGAGGUAGUAGGUUGUAUAGUUUUAGGGUCACACCCACCACUGGGAGAUAACUAUACAAUCUACUGUCUUUCC [mmu-pre-let-7a-1] | less active | no binding | binds | no binding | binds | no binding | binds | active | less active | – | – | – | – | –
3 | UGAGGUAGUAGGUUGUAUAGUUUUAGGGUCACACCCACCACUGGGAGAUAACUAUACAAUCUACUGUCUUUCCUUUUUUUUUUUUUU [mmu-pre-let-7a-1+14U] | – | – | – | – | – | – | – | – | – | binds | binds | binds | active | less active
